# From article PMC5874067
# Positions count from the first letter of the chain named. Names and notes keep the numbering of the source. Results are given in words; binding and its absence hold for the method and conditions named. In cells and extracts the contact can be indirect. Some binding calls cover weakened binding; strength is not graded here. Sequences can lack the tags named with a protein.
# T1: EGFP-fused ARL6∆N15(Q73L) (UniProt Q9H0F7)
# T1 sequence: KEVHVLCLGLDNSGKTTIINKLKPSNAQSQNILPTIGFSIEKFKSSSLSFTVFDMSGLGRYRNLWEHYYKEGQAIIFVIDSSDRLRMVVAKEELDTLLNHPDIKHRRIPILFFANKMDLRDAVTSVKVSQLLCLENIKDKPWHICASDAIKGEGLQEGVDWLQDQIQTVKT
# T2: EGFP-BBS7 (human) (UniProt Q8IWZ6)
# T2 sequence: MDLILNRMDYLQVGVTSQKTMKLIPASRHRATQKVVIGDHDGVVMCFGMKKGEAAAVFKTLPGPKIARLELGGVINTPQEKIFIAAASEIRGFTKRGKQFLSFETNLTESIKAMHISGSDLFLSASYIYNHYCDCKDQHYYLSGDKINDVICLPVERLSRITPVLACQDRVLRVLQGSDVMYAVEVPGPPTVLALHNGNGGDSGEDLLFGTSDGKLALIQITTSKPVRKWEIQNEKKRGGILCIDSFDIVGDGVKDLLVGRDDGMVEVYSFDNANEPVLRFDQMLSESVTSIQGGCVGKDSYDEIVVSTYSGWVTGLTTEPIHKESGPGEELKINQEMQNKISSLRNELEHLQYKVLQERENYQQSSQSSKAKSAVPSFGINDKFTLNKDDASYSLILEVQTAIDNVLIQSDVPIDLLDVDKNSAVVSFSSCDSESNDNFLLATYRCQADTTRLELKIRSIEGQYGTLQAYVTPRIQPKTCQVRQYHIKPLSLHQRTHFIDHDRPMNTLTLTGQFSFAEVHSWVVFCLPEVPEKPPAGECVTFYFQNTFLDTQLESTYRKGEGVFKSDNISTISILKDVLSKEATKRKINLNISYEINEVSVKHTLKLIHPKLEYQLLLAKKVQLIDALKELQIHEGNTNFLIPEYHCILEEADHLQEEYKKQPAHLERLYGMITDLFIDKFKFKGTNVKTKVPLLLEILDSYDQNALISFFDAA
# T3: EGFP-BBS9 (human) (UniProt Q3SYG4)
# T3 sequence: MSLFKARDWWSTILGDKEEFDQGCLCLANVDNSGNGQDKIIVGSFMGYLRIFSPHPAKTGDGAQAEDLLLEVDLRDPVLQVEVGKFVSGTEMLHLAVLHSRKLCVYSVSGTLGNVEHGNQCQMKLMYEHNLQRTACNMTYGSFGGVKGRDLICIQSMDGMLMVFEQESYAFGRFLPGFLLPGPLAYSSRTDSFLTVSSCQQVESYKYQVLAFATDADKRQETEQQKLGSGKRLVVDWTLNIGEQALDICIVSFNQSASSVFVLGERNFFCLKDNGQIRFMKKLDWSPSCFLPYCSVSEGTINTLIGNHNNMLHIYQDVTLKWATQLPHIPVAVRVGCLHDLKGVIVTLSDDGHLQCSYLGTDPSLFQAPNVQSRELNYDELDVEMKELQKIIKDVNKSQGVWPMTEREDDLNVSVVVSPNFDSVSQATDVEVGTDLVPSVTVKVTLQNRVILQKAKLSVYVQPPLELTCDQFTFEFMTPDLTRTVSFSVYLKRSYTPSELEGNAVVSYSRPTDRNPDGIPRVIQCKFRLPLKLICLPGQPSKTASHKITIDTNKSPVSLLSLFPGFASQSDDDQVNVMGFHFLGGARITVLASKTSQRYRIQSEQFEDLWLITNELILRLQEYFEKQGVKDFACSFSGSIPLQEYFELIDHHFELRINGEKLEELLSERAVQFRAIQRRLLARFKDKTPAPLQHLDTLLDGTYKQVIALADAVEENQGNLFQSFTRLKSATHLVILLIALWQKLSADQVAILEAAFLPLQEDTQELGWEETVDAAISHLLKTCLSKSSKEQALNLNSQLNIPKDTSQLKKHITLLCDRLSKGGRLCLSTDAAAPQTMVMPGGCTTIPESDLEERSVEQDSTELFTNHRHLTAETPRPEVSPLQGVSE
# B1: mChe-fused BBS1(WT) (protein, UniProt Q8NFJ9 1-593)
# chain: MAAASSSDSDACGAESNEANSKWLDAHYDPMANIHTFSACLALADLHGDGEYKLVVGDLGPGGQQPRLKVLKGPLVMTESPLPALPAAAATFLMEQHEPRTPALALASGPCVYVYKNLRPYFKFSLPQLPPNPLEQDLWNQAKEDRIDPLTLKEMLESIRETAEEPLSIQSLRFLQLELSEMEAFVNQHKSNSIKRQTVITTMTTLKKNLADEDAVSCLVLGTENKELLVLDPEAFTILAKMSLPSVPVFLEVSGQFDVEFRLAAACRNGNIYILRRDSKHPKYCIELSAQPVGLIRVHKVLVVGSTQDSLHGFTHKGKKLWTVQMPAAILTMNLLEQHSRGLQAVMAGLANGEVRIYRDKALLNVIHTPDAVTSLCFGRYGREDNTLIMTTRGGGLIIKILKRTAVFVEGGSEVGPPPAQAMKLNVPRKTRLYVDQTLREREAGTAMHRAFQTDLYLLRLRAARAYLQALESSLSPLSTTAREPLKLHAVVQGLGPTFKLTLHLQNTSTTRPVLGLLVCFLYNEALYSLPRAFFKVPLLVPGLNYPLETFVESLSNKGISDIIKVLVLREGQSAPLLSAHVNMPGSEGLAAA
# B2: tRFP-fused BBS1(WT) (protein, UniProt Q8NFJ9 1-593)
# chain: B1 chain
# B3: tRFP-fused BBS1(1–575) (domain or fragment, UniProt Q8NFJ9 1-575)
# chain: MAAASSSDSDACGAESNEANSKWLDAHYDPMANIHTFSACLALADLHGDGEYKLVVGDLGPGGQQPRLKVLKGPLVMTESPLPALPAAAATFLMEQHEPRTPALALASGPCVYVYKNLRPYFKFSLPQLPPNPLEQDLWNQAKEDRIDPLTLKEMLESIRETAEEPLSIQSLRFLQLELSEMEAFVNQHKSNSIKRQTVITTMTTLKKNLADEDAVSCLVLGTENKELLVLDPEAFTILAKMSLPSVPVFLEVSGQFDVEFRLAAACRNGNIYILRRDSKHPKYCIELSAQPVGLIRVHKVLVVGSTQDSLHGFTHKGKKLWTVQMPAAILTMNLLEQHSRGLQAVMAGLANGEVRIYRDKALLNVIHTPDAVTSLCFGRYGREDNTLIMTTRGGGLIIKILKRTAVFVEGGSEVGPPPAQAMKLNVPRKTRLYVDQTLREREAGTAMHRAFQTDLYLLRLRAARAYLQALESSLSPLSTTAREPLKLHAVVQGLGPTFKLTLHLQNTSTTRPVLGLLVCFLYNEALYSLPRAFFKVPLLVPGLNYPLETFVESLSNKGISDIIKVLVLREGQSA
# B4: tRFP-fused BBS1(I399E) (protein, UniProt Q8NFJ9 1-593)
# chain: B1 chain with I399E
# B5: tRFP-fused BBS1(R404A) (protein, UniProt Q8NFJ9 1-593)
# chain: B1 chain with R404A
# B6: mChe-fused BBS1(1–575) (domain or fragment, UniProt Q8NFJ9 1-575)
# chain: B3 chain
# Biological target: T1, EGFP-fused ARL6∆N15(Q73L)
# Assay: co-IP; VIP assay: lysates of HEK293T cells co-expressing an EGFP-fused and an mChe- or tRFP-fused protein (HMDEKN buffer: 10 mM HEPES pH 7.4, 5 mM MgSO4, 1 mM DTT, 0.5 mM EDTA, 25 mM KCl, 0.5% NP-40); EGFP fusion precipitated with GST-anti-GFP nanobody on glutathione-Sepharose beads; beads read by fluorescence microscopy and, for some pairs, by immunoblotting
row,Binder,binding
1,B1,binds
2,B2,binds
3,B3,binds
4,B4,no binding
5,B5,no binding

# Biological target: T2, EGFP-BBS7 (human)
# Assay: as above
row,Binder,binding
1,B2,binds
2,B3,binds
3,B4,binds
4,B5,binds

# Biological target: T3, EGFP-BBS9 (human)
# Assay: as above
row,Binder,binding
1,B1,binds
2,B6,no binding
